The values below come from article PMC6928641.

Amino acid sequences for entries named in this document (tags omitted). Residues count along the entry.
UniProt P38398, residues 1650-1863: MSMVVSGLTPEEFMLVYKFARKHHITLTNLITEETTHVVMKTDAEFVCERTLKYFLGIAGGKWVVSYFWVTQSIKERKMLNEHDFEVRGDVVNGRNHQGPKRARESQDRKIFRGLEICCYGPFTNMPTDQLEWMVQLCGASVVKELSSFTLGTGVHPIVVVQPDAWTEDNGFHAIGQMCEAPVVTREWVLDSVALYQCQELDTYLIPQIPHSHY
UniProt P85299: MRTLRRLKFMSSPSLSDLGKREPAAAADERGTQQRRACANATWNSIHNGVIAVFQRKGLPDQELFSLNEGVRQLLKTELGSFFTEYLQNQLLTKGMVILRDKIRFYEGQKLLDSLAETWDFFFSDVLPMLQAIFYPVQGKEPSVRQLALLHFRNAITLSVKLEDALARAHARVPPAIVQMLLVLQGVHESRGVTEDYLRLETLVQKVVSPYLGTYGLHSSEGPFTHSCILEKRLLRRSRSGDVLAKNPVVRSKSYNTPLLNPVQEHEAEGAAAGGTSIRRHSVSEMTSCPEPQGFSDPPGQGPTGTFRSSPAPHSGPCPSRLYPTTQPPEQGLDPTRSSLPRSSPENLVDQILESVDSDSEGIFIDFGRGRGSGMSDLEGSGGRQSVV
UniProt Q6R327: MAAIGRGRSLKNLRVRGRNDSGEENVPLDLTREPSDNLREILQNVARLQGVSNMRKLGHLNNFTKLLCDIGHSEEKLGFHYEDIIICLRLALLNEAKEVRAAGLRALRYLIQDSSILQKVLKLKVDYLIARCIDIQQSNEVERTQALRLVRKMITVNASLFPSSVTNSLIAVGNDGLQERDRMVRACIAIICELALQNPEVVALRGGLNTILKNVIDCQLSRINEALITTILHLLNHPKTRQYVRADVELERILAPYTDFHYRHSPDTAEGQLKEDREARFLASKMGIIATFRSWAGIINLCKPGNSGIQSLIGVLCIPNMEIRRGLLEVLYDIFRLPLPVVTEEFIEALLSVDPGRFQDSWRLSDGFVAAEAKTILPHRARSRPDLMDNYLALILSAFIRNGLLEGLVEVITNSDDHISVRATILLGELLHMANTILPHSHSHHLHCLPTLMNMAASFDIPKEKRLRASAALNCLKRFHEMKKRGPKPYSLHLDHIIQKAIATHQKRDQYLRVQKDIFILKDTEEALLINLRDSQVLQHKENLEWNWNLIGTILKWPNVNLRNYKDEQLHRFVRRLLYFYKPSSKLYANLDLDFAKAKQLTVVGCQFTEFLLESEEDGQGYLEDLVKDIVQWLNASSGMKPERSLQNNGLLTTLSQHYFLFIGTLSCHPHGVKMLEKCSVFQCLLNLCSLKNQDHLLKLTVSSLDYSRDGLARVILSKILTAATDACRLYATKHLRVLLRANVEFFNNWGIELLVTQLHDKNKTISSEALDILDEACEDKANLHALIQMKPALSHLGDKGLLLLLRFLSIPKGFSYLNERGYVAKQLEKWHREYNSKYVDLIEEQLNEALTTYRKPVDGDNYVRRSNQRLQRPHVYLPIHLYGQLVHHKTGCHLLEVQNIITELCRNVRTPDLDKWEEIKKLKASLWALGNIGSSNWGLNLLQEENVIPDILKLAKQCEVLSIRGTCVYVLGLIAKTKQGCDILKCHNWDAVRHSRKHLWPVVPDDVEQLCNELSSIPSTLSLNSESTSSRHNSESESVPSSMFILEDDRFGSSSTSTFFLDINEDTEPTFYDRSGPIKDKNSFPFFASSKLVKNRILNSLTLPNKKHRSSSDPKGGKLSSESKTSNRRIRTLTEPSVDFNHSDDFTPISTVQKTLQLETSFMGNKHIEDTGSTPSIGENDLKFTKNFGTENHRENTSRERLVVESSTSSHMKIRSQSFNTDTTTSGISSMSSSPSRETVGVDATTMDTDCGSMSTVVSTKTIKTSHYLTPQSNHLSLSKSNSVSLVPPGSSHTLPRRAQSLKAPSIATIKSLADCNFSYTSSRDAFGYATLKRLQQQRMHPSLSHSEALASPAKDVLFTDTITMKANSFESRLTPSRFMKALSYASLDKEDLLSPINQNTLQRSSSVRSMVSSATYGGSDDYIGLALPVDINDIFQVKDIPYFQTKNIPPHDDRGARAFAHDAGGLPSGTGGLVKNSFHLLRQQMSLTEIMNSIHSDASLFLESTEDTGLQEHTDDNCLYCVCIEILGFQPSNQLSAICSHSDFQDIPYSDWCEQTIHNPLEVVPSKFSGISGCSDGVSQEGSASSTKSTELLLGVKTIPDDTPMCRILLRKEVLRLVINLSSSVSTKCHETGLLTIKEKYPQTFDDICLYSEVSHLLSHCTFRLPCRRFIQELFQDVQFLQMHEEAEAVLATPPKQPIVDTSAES
UniProt Q9BPZ7: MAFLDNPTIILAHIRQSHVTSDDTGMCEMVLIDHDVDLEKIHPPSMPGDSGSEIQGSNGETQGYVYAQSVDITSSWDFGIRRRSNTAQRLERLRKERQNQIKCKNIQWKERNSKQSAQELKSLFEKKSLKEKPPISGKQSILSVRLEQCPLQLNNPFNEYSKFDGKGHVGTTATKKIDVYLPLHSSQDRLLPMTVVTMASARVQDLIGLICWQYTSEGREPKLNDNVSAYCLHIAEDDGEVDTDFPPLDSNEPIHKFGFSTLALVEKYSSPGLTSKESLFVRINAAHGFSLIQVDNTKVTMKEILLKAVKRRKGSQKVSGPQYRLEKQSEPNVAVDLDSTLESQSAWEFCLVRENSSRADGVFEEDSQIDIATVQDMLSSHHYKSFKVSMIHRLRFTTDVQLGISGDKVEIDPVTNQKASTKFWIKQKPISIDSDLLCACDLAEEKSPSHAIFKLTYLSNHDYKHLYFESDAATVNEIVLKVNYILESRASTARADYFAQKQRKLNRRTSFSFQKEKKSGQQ

Results are given in words; binding and its absence hold for the method and conditions named. For some of these results: Binding seen in cells or lysates may run through a third protein. Some results given as binding are weak or reduced against the parent protein; the word gives no strength.

Assay [1] addresses BRCA1 tandem BRCT domain (tBRCT) wild type, GAL4 DNA binding domain fusion (human) (UniProt P38398). The assay is described as follows: two-hybrid; ProQuest Two-Hybrid system, MaV203 yeast; GAL4-DBD BRCA1 tBRCT (pDEST32) with GAL4-AD PRR5, SIN1 or RICTOR (pDEST22); HIS3 selection (-Leu, -Trp, -His), ten-fold serial dilutions, 3AT up to 100 mM.
Another assay deals with Myc-tagged PRR5 (UniProt P85299). In words: co-IP; TAP-tagged BRCA1 tBRCT and Myc-tagged RICTOR, PRR5 or SIN1 co-transfected into 293FT cells; immunoprecipitation with α-MYC antibody, CBP blot.
For another assay, the target named is Myc-tagged RICTOR (UniProt Q6R327). The description is as above.
In another assay the target is Myc-tagged SIN1 (UniProt Q9BPZ7). The description is as above.

Regarding “PRR5 (Proline-rich protein 5), GAL4 activation domain fusion (from UniProt P85299 1-388)”, the binding entry in assay [1] is “binds”.

For the substance “TAP-tagged BRCA1 tBRCT domain (from UniProt P38398 1650-1863) (domain or fragment)”, the binding entry in the assay with Myc-tagged PRR5, with Myc-tagged RICTOR and with Myc-tagged SIN1 was “binds” in each case.
